{"source": "PubChem BioAssay AID652243 (Drosophila RNAi Screening Center, 2013)", "purpose": "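Fly regulators of androgen-dependent reporter output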 (primary screen)", "cells": "Drosophila S2R+ cells", "reagent": "long dsRNA against Drosophila genes", "timing": "72 h (48 h, then 24 h hormone)", "treatment": "synthetic androgen R1881 at 10 nM for 24 h", "read-out": "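Per-well raw luminescence of the androgen-driven firefly reporter and of the Renilla control, two replicates each, without normalisation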", "scale": "firefly reporter light: higher = more light from androgen-responsive reporter; Renilla control light: higher = more constitutive control signal (cell number, transfection)", "active means": "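Across duplicate plates, a knock-down whose log firefly/Renilla ratio shifted a set fold down or up from the GFP/LacZ control mean was a hit; the downward cut appears as both 1.5 and 3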", "calls": "active = hit: reporter lowered or raised; inactive = no hit", "note": "The screen tested about 24,000 reagents; this is a random part of those with a known target gene and a result. Over the whole deposit, 246 (1%) are marked active. 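Plates not normalised; calls are printed but the firefly/Renilla ratio behind them is not deposited; fold cut for lowering reported inconsistently.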 The raw values are shown without normalisation. The numbers tell different reagents against one gene apart. Names joined by + are all predicted targets of the reagent. No sequences are given here. The record does not give: the amount of reagent."}
{"gene":"RpLP0 (GeneID 40451)","reagent":1,"firefly reporter light, replicate 1":2.25e5,"firefly reporter light, replicate 2":1.81e5,"Renilla control light, replicate 1":2.79e6,"Renilla control light, replicate 2":2.25e6,"Outcome":"inactive"}
{"gene":"RpLP0 (GeneID 40451)","reagent":2,"firefly reporter light, replicate 1":3.70e5,"firefly reporter light, replicate 2":4.04e5,"Renilla control light, replicate 1":1.05e6,"Renilla control light, replicate 2":9.48e5,"Outcome":"inactive"}
{"gene":"7SLRNA:CR42652 + 7SLRNA:CR32864","reagent":1,"firefly reporter light, replicate 1":7.85e5,"firefly reporter light, replicate 2":1.15e6,"Renilla control light, replicate 1":5.84e5,"Renilla control light, replicate 2":7.88e5,"Outcome":"inactive"}
{"gene":"CG9691 (GeneID 31923)","reagent":1,"firefly reporter light, replicate 1":2.95e5,"firefly reporter light, replicate 2":4.58e5,"Renilla control light, replicate 1":3.12e6,"Renilla control light, replicate 2":3.01e6,"Outcome":"inactive"}
{"gene":"CG13198 (GeneID 36245)","reagent":1,"firefly reporter light, replicate 1":4.13e5,"firefly reporter light, replicate 2":3.08e5,"Renilla control light, replicate 1":2.07e6,"Renilla control light, replicate 2":1.86e6,"Outcome":"inactive"}
{"gene":"Stim (GeneID 32556)","reagent":1,"firefly reporter light, replicate 1":1.06e5,"firefly reporter light, replicate 2":1.55e5,"Renilla control light, replicate 1":6.41e5,"Renilla control light, replicate 2":6.91e5,"Outcome":"inactive"}
{"gene":"CG8738 (GeneID 35855)","reagent":1,"firefly reporter light, replicate 1":4.21e5,"firefly reporter light, replicate 2":3.64e5,"Renilla control light, replicate 1":2.02e6,"Renilla control light, replicate 2":1.53e6,"Outcome":"inactive"}
{"gene":"CG16749 (GeneID 41111)","reagent":1,"firefly reporter light, replicate 1":1.42e5,"firefly reporter light, replicate 2":1.57e5,"Renilla control light, replicate 1":2.84e6,"Renilla control light, replicate 2":2.58e6,"Outcome":"inactive"}
{"gene":"CG16749 (GeneID 41111)","reagent":2,"firefly reporter light, replicate 1":8.95e5,"firefly reporter light, replicate 2":1.18e6,"Renilla control light, replicate 1":1.04e6,"Renilla control light, replicate 2":1.22e6,"Outcome":"inactive"}
{"gene":"exp (GeneID 36276)","reagent":1,"firefly reporter light, replicate 1":98409,"firefly reporter light, replicate 2":1.10e5,"Renilla control light, replicate 1":3.95e5,"Renilla control light, replicate 2":4.76e5,"Outcome":"inactive"}
{"gene":"exp (GeneID 36276)","reagent":2,"firefly reporter light, replicate 1":8.24e5,"firefly reporter light, replicate 2":1.11e6,"Renilla control light, replicate 1":9.21e5,"Renilla control light, replicate 2":8.92e5,"Outcome":"inactive"}
{"gene":"CG8299 (GeneID 36751)","reagent":1,"firefly reporter light, replicate 1":39544,"firefly reporter light, replicate 2":46935,"Renilla control light, replicate 1":8.66e5,"Renilla control light, replicate 2":8.66e5,"Outcome":"inactive"}
{"gene":"CG8299 (GeneID 36751)","reagent":2,"firefly reporter light, replicate 1":1.59e6,"firefly reporter light, replicate 2":1.39e6,"Renilla control light, replicate 1":1.45e6,"Renilla control light, replicate 2":1.48e6,"Outcome":"inactive"}
{"gene":"Cda4 (GeneID 33144)","reagent":1,"firefly reporter light, replicate 1":2.14e5,"firefly reporter light, replicate 2":1.95e5,"Renilla control light, replicate 1":7.45e5,"Renilla control light, replicate 2":5.14e5,"Outcome":"inactive"}
{"gene":"Cda4 (GeneID 33144)","reagent":2,"firefly reporter light, replicate 1":80903,"firefly reporter light, replicate 2":79337,"Renilla control light, replicate 1":1.92e5,"Renilla control light, replicate 2":1.93e5,"Outcome":"inactive"}
{"gene":"Cda4 (GeneID 33144)","reagent":3,"firefly reporter light, replicate 1":2.12e5,"firefly reporter light, replicate 2":1.63e5,"Renilla control light, replicate 1":7.79e5,"Renilla control light, replicate 2":5.91e5,"Outcome":"inactive"}

4 entries already listed, arranged by “Renilla control light, replicate 2”, descending.
{"gene":"CG8299 (GeneID 36751)","reagent":2,"firefly reporter light, replicate 1":1.59e6,"firefly reporter light, replicate 2":1.39e6,"Renilla control light, replicate 1":1.45e6,"Renilla control light, replicate 2":1.48e6,"Outcome":"inactive"}
{"gene":"exp (GeneID 36276)","reagent":2,"firefly reporter light, replicate 1":8.24e5,"firefly reporter light, replicate 2":1.11e6,"Renilla control light, replicate 1":9.21e5,"Renilla control light, replicate 2":8.92e5,"Outcome":"inactive"}
{"gene":"CG8299 (GeneID 36751)","reagent":1,"firefly reporter light, replicate 1":39544,"firefly reporter light, replicate 2":46935,"Renilla control light, replicate 1":8.66e5,"Renilla control light, replicate 2":8.66e5,"Outcome":"inactive"}
{"gene":"Cda4 (GeneID 33144)","reagent":1,"firefly reporter light, replicate 1":2.14e5,"firefly reporter light, replicate 2":1.95e5,"Renilla control light, replicate 1":7.45e5,"Renilla control light, replicate 2":5.14e5,"Outcome":"inactive"}

Next results follow.
{"gene":"eag (GeneID 32428)","reagent":1,"firefly reporter light, replicate 1":1.10e6,"firefly reporter light, replicate 2":3.45e5,"Renilla control light, replicate 1":7.58e5,"Renilla control light, replicate 2":2.97e5,"Outcome":"inactive"}
{"gene":"eag (GeneID 32428)","reagent":2,"firefly reporter light, replicate 1":4.11e5,"firefly reporter light, replicate 2":3.79e5,"Renilla control light, replicate 1":2.37e6,"Renilla control light, replicate 2":3.04e6,"Outcome":"inactive"}
{"gene":"eag (GeneID 32428)","reagent":3,"firefly reporter light, replicate 1":7.20e5,"firefly reporter light, replicate 2":9.41e5,"Renilla control light, replicate 1":9.39e5,"Renilla control light, replicate 2":1.48e6,"Outcome":"inactive"}
{"gene":"mRpL17 (GeneID 38046)","reagent":1,"firefly reporter light, replicate 1":1.09e5,"firefly reporter light, replicate 2":1.33e5,"Renilla control light, replicate 1":1.47e6,"Renilla control light, replicate 2":1.58e6,"Outcome":"inactive"}
{"gene":"CG14546 (GeneID 43142)","reagent":1,"firefly reporter light, replicate 1":1.30e5,"firefly reporter light, replicate 2":1.47e5,"Renilla control light, replicate 1":2.26e6,"Renilla control light, replicate 2":1.91e6,"Outcome":"inactive"}
{"gene":"CG30010 (GeneID 246389)","reagent":1,"firefly reporter light, replicate 1":1.80e5,"firefly reporter light, replicate 2":1.18e5,"Renilla control light, replicate 1":2.44e5,"Renilla control light, replicate 2":2.61e5,"Outcome":"inactive"}
{"gene":"CG32277 (GeneID 38393)","reagent":1,"firefly reporter light, replicate 1":1.65e5,"firefly reporter light, replicate 2":1.50e5,"Renilla control light, replicate 1":1.14e6,"Renilla control light, replicate 2":1.15e6,"Outcome":"inactive"}
{"gene":"CG12773 (GeneID 31082)","reagent":1,"firefly reporter light, replicate 1":81732,"firefly reporter light, replicate 2":66217,"Renilla control light, replicate 1":5.47e5,"Renilla control light, replicate 2":3.48e5,"Outcome":"inactive"}
{"gene":"CG12773 (GeneID 31082)","reagent":2,"firefly reporter light, replicate 1":9.85e5,"firefly reporter light, replicate 2":7.91e5,"Renilla control light, replicate 1":1.34e6,"Renilla control light, replicate 2":1.38e6,"Outcome":"inactive"}
{"gene":"CG13377 (GeneID 30972)","reagent":1,"firefly reporter light, replicate 1":3.34e5,"firefly reporter light, replicate 2":2.89e5,"Renilla control light, replicate 1":3.60e6,"Renilla control light, replicate 2":3.16e6,"Outcome":"inactive"}
{"gene":"RpS16 (GeneID 37580)","reagent":1,"firefly reporter light, replicate 1":2.61e5,"firefly reporter light, replicate 2":4.08e5,"Renilla control light, replicate 1":1.30e6,"Renilla control light, replicate 2":1.68e6,"Outcome":"inactive"}
{"gene":"RpS16 (GeneID 37580)","reagent":2,"firefly reporter light, replicate 1":4.82e5,"firefly reporter light, replicate 2":3.27e5,"Renilla control light, replicate 1":1.04e6,"Renilla control light, replicate 2":9.37e5,"Outcome":"inactive"}
